Screen size: about 52,000 sequences; about 210 (0.4%) were called active.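 Rule for the calls: active = gene whose silencing raises cell survival under the drug, median off-target-corrected z-score across its silencing RNAs 2 or more; inactive = the rest.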 This is one part of the list.
Test: Resistance to Poly (ADP-Ribose) Polymerase inhibitor: Gene Identification via Genome-wide siRNA Screen
Details: mouse BRCA2 R2336H ES cells, olaparib, CellTiter-Glo viability; hits give high values
Procedure, shortened: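 Mouse BRCA2 R2336H ES cells were reverse-transfected with siRNA (20 nM final), treated at 48 h with 500 nM olaparib, and read by CellTiter-Glo after 72 h. Scores: MAD-based z per siRNA, median per gene, seed off-target correction.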

| Sequence | z-score |
| --- | --- |
| GGAAUUCCACAGAUAAUGGTT against V1rg12 | inactive: 1.23 |
| GGGCCUCAUCUUUGUGGUATT against Arf5 | inactive: 0.264 |
| GGUGUAGUAAUAGGAUUUUTT against Ak3l | inactive: 0.278 |
| GGCAACGAGUCAAGUGUGUTT against Ascl3 | inactive: 3.14 |
| GGGCAAAAAUAGGAAGAACTT against Armcx2 | inactive: -0.43 |
| GGAGAACACAGUACAGAUGTT against Zfp398 | inactive: 0.854 |
| GGAAGAGAUGGAAUUAUUGTT against Sh3bp5 | inactive: -0.737 |
| GGAAAUUUCUUAGCACGAATT against Ppp4r1 | inactive: 0.667 |
| CCUCUGCGCAAUUUAGAGATT against Npb | inactive: 0.185 |
| GCAAAACUUGACUACCGCCTT against Bzw1 | inactive: 0.493 |
| GGUUCUGGAAAUGGAGACUTT against 1700022C02Rik | inactive: 0.274 |
| GCUCCAUGGAAUAAUUAAATT against LOC432637 | inactive: 1.88 |
| GCUGGUCGAUCAGAAAUGCTT against Cfi | inactive: 0.113 |
| GGAUUGCUGUGCCUUAUGATT against 2010004A03Rik | inactive: 0.503 |
| CCCUAUCAUCGAUGGUCGCTT against Rnpc1 | inactive: 0.143 |
| GUUAGGUGACUACACUACATT against D5Ertd689e | inactive: -0.0239 |
| CGAGAAGUGCUGACUCAAUTT against Gtlf3a | inactive: -0.147 |
| GGAACAGAUCUCUGAUAUATT against Rpo2tc1 | inactive: -1.78 |
| GGUCAGCAUUUGCUAUGAATT against 4930488E11Rik | inactive: 0.678 |
| GGACAUUCUUCAGAACUGGTT against Ogfr | inactive: 1.16 |
| GGAUGAGGAGGAUACAAAGTT against Eif3s8 | inactive: -3.26 |
| GGUGUGGUCAUUCCAAAUGTT against Ms4a8a | inactive: -2.57 |
| GGUGAUGCGAUCUUCUUUATT against Anxa10 | inactive: -0.0853 |
| GGCUUACCUACAACAAGUUTT against Ccnt1 | inactive: 0.152 |
| GGCAAUGAGAGUGCAUAUGTT against 2310061G07Rik | inactive: -2.66 |
| GGGAACAAAUGUUUCAUUGTT against Mfap3 | inactive: 0.199 |

| Sequence | z-score |
| --- | --- |
| CGACGAAGAUAUUUACAGUTT against Vav1 | inactive: -0.0388 |
| GGAAAUUAAAGACCAGUAGTT against 2810025M15Rik | inactive: -0.232 |
| GGAAGACAAUGAUGAUGUUTT against Clns1a | inactive: -1.66 |
| GGCAUCUUCAUGUACUUGCTT against Olfr1445 | inactive: 2.1 |
| GGAGAAUUCCAAUUUUAGGTT against Pcdhb14 | inactive: 1.39 |
| GCCAGAACCCGUCUUUUCATT against Ccpg1 | inactive: -1.85 |
| GCAAUGUGGGUUAUUAUUUTT against Olfr963 | inactive: -0.297 |
| GGAAAGGCAAAUACCAAGCTT against Ddx25 | inactive: 1.83 |
| CCAUGAAAAGUGUGAAUGCTT against Fap | inactive: 1.3 |
| CCUGUCAGUUAACAUUUGATT against Acadsb | inactive: 1.48 |
| GGCAUUUUGGAACCUAUAATT against 9030418M05Rik | inactive: 1.13 |
| GGCUAAGGAAAUUUUAACGTT against Ppp2cb | inactive: 0.945 |
| GGAGCUCAUGAAGAUGAAGTT against 1700051E09Rik | inactive: 0.674 |
| GGAUGUUGGCAGCCGAACATT against Siat5 | inactive: 0.434 |
| GGGAAAAAAAAGCAUCACUTT against 1110004B15Rik | inactive: -0.128 |
| GGAGACUGACAAGAAAAUUTT against AU018829 | inactive: -0.855 |
| GGAAAAAACCUUUGACCAATT against 4930532D21Rik | inactive: 0.198 |
| GAGCCUUCUAAGUCUGCACTT against Hist1h2bb | inactive: 0.996 |
| CCUAACACUAGUCUCAGAATT against Olfr873 | inactive: 1.3 |
| GUGAAGUCUUCAGCAGUCUTT against Sprr2f | inactive: -0.257 |
| GCAAUGACUUGAACUAUUUTT against 4930578C19Rik | inactive: 0.564 |
| CGGAUACCGUAGUUUGGUGTT against Lipe | inactive: -0.616 |
| GCCCAGCCUACUAACAACCTT against Plxnb1 | inactive: -0.416 |
| GUAUUUGGGACUGAAUUGCTT against AV284857 | inactive: -1.66 |
| GGGAAAGUGCUCUAGCAAGTT against D8Ertd233e | inactive: -0.229 |
| GCCACUUUCUGGUUUUGUATT against Tas2r126 | inactive: 0.784 |

| Sequence | z-score |
| --- | --- |
| CCGUGUAAACCUGGCAUCATT against Znhit1 | inactive: 1.52 |
| GGCUGGUUACCUGCAUAAGTT against Sh3bp2 | inactive: -0.404 |
| CCAUUGUCAAGUCAAGAGCTT against 4933440M02Rik | inactive: 0.42 |
| GCAUGCAGACUUACAGAAGTT against 2610034E18Rik | inactive: 0.251 |
| GGAGUACCUGGACAUUGUGTT against 1110032N12Rik | inactive: 0.677 |
| GGAUUAUGAUUUGCCUGAUTT against 4932414N04Rik | inactive: -0.719 |
| GGACAAUUUACACGACCAGTT against Folr1 | inactive: -0.179 |
| CGGAAAAAGAAGGACAUCCTT against Mesdc2 | inactive: 1.02 |
| GCAAAUUAGGCUCUUAUCCTT against 4930402H24Rik | inactive: 0.641 |
| GGGUGUUGGAGUUUGCCAUTT against BC034068 | inactive: 0.0452 |
| GGAAGAAAUCAAGGUAUCATT against 9330155M09Rik | inactive: -2.71 |
| CGAUUUCAACCGUGAAUCUTT against Tcf12 | inactive: 2.9 |
| GGUUUGGCAUCUAAAGAGCTT against Olfr1412 | inactive: 1.71 |
| GGUAAAGAAAUGAGGACCGTT against Tas2r130 | inactive: 0.311 |
| CGCACAUGCCACUUCCACATT against 4933425A18Rik | inactive: -1.07 |
| GGAUCCUGCCUUAAGUCAATT against Gadd45a | inactive: 2.58 |
| GGGCUGCUGCUUAGCAAUCTT against Egln3 | inactive: -0.555 |
| GCUGCCUAUAUUCAUUUAATT against Zhx3 | inactive: 0.943 |
| CGCAGUCAAAUUUGAAAGUTT against Car5b | inactive: -1.01 |
| GGAAGAAGAUCACCAUCAUTT against Ifi16 | inactive: -2.37 |
| GCAGUUCUCCUAUUUCAUCTT against Cdc45l | inactive: 0.857 |
| GGCUCAGUUUAAGAAAACATT against Pkp2 | inactive: 1.39 |
| GGCUACCGCCACAUUGAUUTT against Akr1a4 | inactive: -0.59 |
| GGAGAAGAAGAACAGGACATT against 9130020G10Rik | inactive: -3.07 |
| GGGCUGACCAUAACUUGAUTT against Unc5d | inactive: 1.13 |
| GGAUCAAGAAUCCAAGGUUTT against Nek6 | inactive: 0.285 |

An excerpt of these results, with bars between the fields.
Sequence | z-score
CGGAUACCGUAGUUUGGUGTT against Lipe | inactive: -0.616
GCCCAGCCUACUAACAACCTT against Plxnb1 | inactive: -0.416
GUAUUUGGGACUGAAUUGCTT against AV284857 | inactive: -1.66
GGGAAAGUGCUCUAGCAAGTT against D8Ertd233e | inactive: -0.229
GCCACUUUCUGGUUUUGUATT against Tas2r126 | inactive: 0.784
CCGUGUAAACCUGGCAUCATT against Znhit1 | inactive: 1.52
GGCUGGUUACCUGCAUAAGTT against Sh3bp2 | inactive: -0.404

Reformatted as comma-separated lines: entries from further up.
Sequence,z-score
GGCUCAGUUUAAGAAAACATT against Pkp2,inactive: 1.39
GGCUACCGCCACAUUGAUUTT against Akr1a4,inactive: -0.59

More results follow:

| Sequence | z-score |
| --- | --- |
| GCAAAGUUCACCUAAUUGGTT against Lipc | inactive: 0.593 |
| GGGACCAGAACAAAGUGGUTT against Olfr487 | inactive: -0.257 |
| GGAUGGCAGACAUUAUGUCTT against Nek1 | inactive: 0.811 |
| CGGCUAAGGAAAAAUGUGATT against Nr1h4 | inactive: -0.308 |
| GCCCAUAAUAAGGAUCCUATT against Tmem34 | inactive: 0.857 |
| GGAGUAUCGUUUAUUCAUUTT against Slc2a2 | inactive: 0.00539 |
| GGCACGAGUUUGACAGUGCTT against 1110007F12Rik | inactive: -0.855 |
| GCGGUUUCUUACCAAUAACTT against Cyp1a2 | inactive: 1.48 |
| CGCGCUAAAGGAGAAGUUUTT against Wnt4 | inactive: -0.789 |
| GGGUCAAGACAAAUCUUCCTT against Snx3 | inactive: 0.0442 |
| GGCCAUCAGAUAGUUUAAUTT against AW551984 | inactive: -0.3 |
| GGGUAGUAGCCUUCUUAUCTT against Olfr1168 | inactive: 0.933 |
| CGUGAUGUGGUAUUGGAACTT against Ampd2 | inactive: 0.214 |
| GGCCCUUGAUAACUUUUCCTT against 1810037K07Rik | inactive: -0.499 |
| GAACUUCUUCUGGAAAACCTT against Cort | inactive: 0.558 |
| CCAAUUGUGAAGAUGUUUGTT against Eif3s6 | inactive: -1.9 |
| GGCACUGUUGUGGCUGAAATT against Coro1a | inactive: 1.21 |
| GGAGACAAGAACUACAUUATT against Actn3 | inactive: -0.825 |
| GGUCAGAAGAGAUGCCAAUTT against Gpr81 | inactive: 1.71 |
| GACACUGUCAAAUUAUGGATT against V1rg5 | inactive: -0.297 |
| GCCGAGCUCAUCAUCAUGATT against Tesp2 | inactive: 2.42 |
| GGAACAGUCCUACUGAUAUTT against Cdkn1a | inactive: -0.196 |
| GCAUAGUCUUGUUAACCAGTT against Poldip3 | inactive: 1.36 |
| GGACAUGAAAGAUGCAAUUTT against Olfr421 | inactive: -0.5 |
| GCCUUUUCAAUCCUAUGUUTT against Olfr441 | inactive: -1.44 |
| GGGAUUUUCUGUGUAUCUUTT against D5Ertd33e | inactive: -0.0623 |

Reference: PubChem BioAssay AID1347423 (Functional Genomics Laboratory (NCATS/FGL), 2020)
